## Screening data

The results are deposited in PubChem (AID1159506; NCATS, 2015).

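Luminescence from an EWS-FLI1 target-promoter (NR0B1) reporter, set against a CMV-promoter reporter, two days after silencing single genes in TC32 Ewing sarcoma cells.
Each siRNA was applied at 20 nM.
A z-score of the log NR0B1-over-CMV signal, less the median of siRNAs with the same seed; more negative means a stronger specific loss of the NR0B1 reporter.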

The strongest results of the screen are mostly left out here.
Sequences are the guide (antisense) strand, without overhang.

Sequence	target gene	seed-corrected z-score
UUGAGUGAACCUUCAAUGC	OIP5	0.1646
UUGUUGAUACACCCGAUCC	SRP54	-0.07127
UAAAGUACCAGAGCUGAGC	GTF2H4	0.6834
UUUCUGUUGUCAACUGGGC	C14orf169	-0.4592
UGCCUGGCCAUGGUAAGAG	KRTAP5-1	0.2203
UAACUGGUCCAUAUGAGUC	ZNF460	-0.3832
AAUCUUAUCAGUGUUGGAC	LCORL	0.3434
UUUCCAAUAAGUCGAGAUG	WEE1	-1.095
UACAUGACCAUAAGAGAGC	OR11H1	-1.826
UUCGAAAUUUCAUCACACC	THEMIS	-0.0233
UUCCAAAUCCUUGUCCUCA	EIF2S2	-0.4971
UUGUAAUCUAUCAAAGACC	FAM189A2	-0.3136
UAAUCUUCCAGGUCGUAAC	SPATA5L1	-0.7442
UUAUUGCCCGAGUCAGUCC	LRP8	0.0427
ACUGGAUUCAUCACGCUCC	INPP5D	0.9808
UUGUUGUCGAUGUUAAUCG	SNX29	-0.668
UUACUUUCCGCACAUCGGG	OPCML	0.3299
UUCUCGUUCUAUACACUGC	RNGTT	-0.2912
UCGUAUUUUGGAGCAAUGC	PRPS1L1	-1.031
UCUGCUUACACCAGGCUGU	KRTAP2-4	-0.9637
UCAUCAAGGAAUAUUGUCG	AGAP4	-0.2108
UUCUCUAGUAAAAAGGCGG	SCN3A	1.205
AAUGGAAUUUCGAGAAAGC	MRPL1	-0.4685
UAGUUGUUCACCAUCAUCU	CA5A	2.017
UUCUCUGAGAUUACAUCUC	MITD1	0.2736
AUCAGCACUGGUAAGAUUG	FASLG	1.947
UAAGCUAUGCAGAUAGUCC	ATP2B4	0.5765
UUAAUAUUGUGAAGCUUGU	GATA3	1.056
UAUUCGUGUAUACUUGUCC	RUSC2	0.4777
UUAUUGCCCGCGUCGAUGU	GDF6	1.018
AUAUCAACCAUGAUCAGGG	TMEM236	0.4638
UGAUCGAAAAGGAAUGCUC	DHRS7B	0.1695
UUCUGAACUAAACUGUCUG	ZNF654	0.129
ACCACUGACAGCUCUGUGC	EIF6	-0.1981
UACAGGUCAGCGUAGCCCU	CYB561	-1.021
ACAUUGUAAAAGGAGAUGC	MEFV	-0.3733
UCCGUUUACAAGAAUGCUG	EPS15	-0.8319
AAAUAGACAAGAACGACGU	PWWP2B	-0.4676
UUAGAGGGAAUCGUUUUCG	SOX30	-0.1028
UCACUAUCCAGGUCAUCAC	LRRK2	0.1876
UCUUCUAUCAAUAAGGUUG	MOB1B	0.7827
UCCGGUUCCUCUUCCUUCC	ZNF688	-0.7159
AAAGAGACACUGGAUCAGC	HSF4	0.5044
UAUUUGAUGAAAUAGCUGA	ZDHHC15	-0.1199
ACACUACAGAGAACAAGCG	LOC729696	-0.1301
UCAGCUUCAAGCUUGAGGG	SPATA32	-0.6222
UUGCCUCUUAUUGCAGAAC	POU6F2	0.218
UUUGAUAAAGGCAUGUUAC	SLAIN1	0.4187
UUUUCUCUCAUCCACUUCC	SH3BGRL	0.3486
UGAAUGUUAGUUUUCAGGU	TRIM53BP	-1.006
UACACGUCUUCUGAGACCC	CRAT	-0.8192
UAAGUGUUUGGUGUGAUUU	STX11	2.559

4 of the entries, repeated:

* UUACUUUCCGCACAUCGGG against OPCML : seed-corrected z-score 0.3299
* UUCCAAAUCCUUGUCCUCA against EIF2S2 : seed-corrected z-score -0.4971
* ACCACUGACAGCUCUGUGC against EIF6 : seed-corrected z-score -0.1981
* UAUUCGUGUAUACUUGUCC against RUSC2 : seed-corrected z-score 0.4777